Tested on: BAEC
Experiment: Sphingomyelin quantification in cells and detergent-resistant membrane fractions
Type: cell-based, bovine
Settings: for Lipid content, Total: initial Triton X-100 suspension

## CCCCCCCCCCCCCC=CC(O)C(COP(=O)([O-])OCC[N+](C)(C)C)NC(=O)CCCCC (centres unmarked) [C6-SM, N-hexanoyl-sphingomyelin]
10 μM C6-SM, within 60 min
  Fraction of the total added amount of C6-SM taken up by cells: ~1.5%
BAEC incubated 60 min with 10 μM C6-SM, n=3
  Lipid content, Total: 1.81±0.47 nmol mg^−1 of total cellular p
BAEC incubated 60 min with 10 μM C6-SM, n=3, listed as Inserted C6-SM
  Lipid content, Total: 1.81±0.47 nmol mg^−1 of total cellular protein
BAEC incubated 60 min with 10 μM C6-SM, lower half of sucrose gradient, n=3
  Lipid content, non-DRM: 1.16±0.56 nmol mg^−1 of total cellular protein
BAEC incubated 60 min with 10 μM C6-SM, upper half of sucrose gradient, n=3
  Lipid content, DRM: 0.22±0.17 nmol mg^−1 of total cellular protein
